Measured values: patent US6133313A, “Insecticidal avocadofurans and triolein” (The Regents of the University of California, priority 1998, dated 2000)
At least one compound was matched to its structure with a doubt left.

Tested on: S. exigua larvae
Experiment: growth inhibition and mortality of synthetic avocadofurans and triolein in diet bioassay
Type: in vivo, Spodoptera exigua
Conditions: in words
Description: S. exigua larvae were used in all experiments. Larvae were reared on artificial diet modified from U.S.D.A. Agric. Res. Serv., Prod. Res. Rep., 1208:1 (1969), and maintained at 28+2° C., 14:10; light:dark (L:D) photoperiod.
The colony was collected from Orange Co., Calif. and had new genetic material added within 12 months prior to the study. The age of the cohorts tested was standardized by using neonates within 12 hours of eclosion. All bioassays were maintained at 28+2° C. 75% relative humidity (RH), and at 14:10 (L:D) photoperiod with fluorescent lighting.
The insecticidal activity of the fractions was tested with artificial diet bioassays. […]
Control diet was prepared by mixing 2 ml of Tween solution and 13 g of artificial diet to produce a final weight of 15 g. […] Mortality and larval weights were recorded after 7 days. […]
Six different compound concentrations, chosen on the basis of studies with the oil fractions, were evaluated for both 2-(pentadecyl)furan and 2-(heptadecyl)furan: 0 (control), 600, 750, 900, 1050, and 1200 μg/g. […]
Twenty-four neonates were used per treatment. […] Larval weight, instar, and mortality were recorded after 7 days […].
EC (effective concentration) values were calculated by subtracting the mean larval weight for each treatment from the mean weight of the controls, and dividing by the mean weight of the controls. […]

For CCCCCCCCCCCCC/C=C/c1ccco1 [2-(1E-pentadecenyl)furan], the “comparative toxicity and growth inhibition” value was “had little effect on survivorship and growth of S. exigua”.
